In all, about 53,000 sequences went through this assay and about 3,700 (7%) were called active.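 How the source made its calls: active means gene knockdowns whose robust z-score for IL-1 alpha signal is at least 2 or at most -2, so actives lie on both sides; inactive means the rest.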 The list shows a part of the results.
assay: Components of the Cytosolic LPS Sensing Pathway: Gene Identification via Genome-wide siRNA Screen; conditions: RAW264.7 macrophages, IL-1a HTRF, actives lie on both sides, screened at 100 nM (by protocol), cells primed 5 h with Pam3CSK4 first;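 further: robust z of the log signal after scaling to non-targeting control siRNA wells of the plate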
Summary of the method: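 IL-1a HTRF of supernatants after 24 hour LipidA transfection of Pam3CSK4-primed (5 hours) RAW264.7 cells, 48h post-siRNA transfection (100 nM). Scores: percent of plate negative-control median, then log-based robust z-score.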

z-score, inactive:
GGAAGUAAGAAUCUGGUUUTT against A730036I17Rik -0.0529
GGUCCGAUAUCUGAGUCUCTT against Hic1 0.471
GGUGUCAACAUUGCAUACUTT against Gatad2b 1.62
GCAGUGGUUAUCCAAGUAUTT against Chrm1 -0.112
GGGAGGAUCAAGGCCUUCUTT against Olfr62 0.104
UUUAAGGAUCUCGUGCGAATT against Olfr809 -0.12
GGACAAAGACCAGUCAUUCTT against Nkapl -0.585
GGGAAAGGAAGAUGAUAUCTT against Wdr64 0.127
GGCAUAUGACCAUCAUAAUTT against Porcn -0.71
CCCAUUGUAUUCAUCAGAGTT against Foxr2 0.35
GGGAGAGGCCUUUUGAAUGTT against Zfp623 -0.0575
GCCAGAUGCUUACUAAGUGTT against Nop14 1.11
AACUUUCUCAUUCUUACUGTT against Olfr961 -1.22
CCGGAAACGGAUCAUUUCATT against Galnt18 1.2
GGGAGUAAUGUUCUAAUCATT against Msh4 0.971
GGAACCCAAACUGAAGUAUTT against Vps41 0.16
GGGAAUGUAAACAAAGUCATT against Iqgap1 -1.11
GGAAUGGGCAGUAUGAGUUTT against Ocrl -1.73
GAGACUAAGCAGUGGAAGATT against Krtap21-1 -0.124
GCCACUCACCUGUAGUUCUTT against BC049715 0.0758
GGACUCCAAGGACAAACUGTT against Wdr45 -0.903
GCCAGUUCGAUAUAUCUUCTT against Gstz1 -1.31
GGAACUUCAGUGUCGUCUCTT against Olfr285 0.364
CCAAAAUGUAUACCUACUUTT against Car4 -0.564
GGCAGAUCUUGCUGACAUCTT against Nat8f2 -1.59
CCUGUUAAUGACACCCACGTT against Slc37a2 -0.886
GGUCCGGAACAAAUUAGAUTT against Eif2ak1 0.76
GGUGUCAGCUUACCAUUCATT against Triap1 -0.329
GCUUUGUUGUACGACAACATT against Agr2 1.43
CGGUGUCACCCAUGUUAUCTT against Actr3b -0.158
GCCCAUCUACUCACGGUACTT against Mon1b -0.21
GGAAAUAGAAGACCAGUUUTT against Srsf3 -1.43
GGCAGAAGAGUGGUACAAGTT against Dok4 1.02
GGUUCAGAAGUUUGUGAUGTT against Vmn1r17 1.67
GCGAGCAAGUGAAAACGCATT against Sumf1 -0.717
GCUGGACCUUCGAAGGUUUTT against Pltp 0.509
GGCCAUUGAGUGCUCCUACTT against Dhcr7 -0.113
GGCUGCUGGUCAGUUAUGATT against Glrb -0.603
GGAAUGUGAGCUUAUCAUATT against Tlr1 -0.965
GGAACUAAAUAUCCCUAUGTT against Polr3gl -1.26
GGAAUAACACCUCUGUCCCTT against Hspa12a 0.145
GGUGUUCAAUGCUCACUAUTT against Fezf2 0.594
GCUUCAGACGUAAUUUACUTT against Morc1 0.751
GGCAUCUGCUUUUCAGAAATT against Ube2h 0.566
GGCAUUUUACCAGCGAAGCTT against Klhl5 0.107
GGAAGCAACCCAAGGAUAATT against Syt8 0.532
GGGUUUCCAAGAAGGAAGCTT against Utp25 0.852
GGGACAACACUCUUUUACUTT against Nab2 0.696
GCUAAGCUACAUUUCCAAATT against Pycard 1.19
GGAAGAGUGUAGGGCUUACTT against Htr1a -0.103
GCCUGUACUUCAGAAACUCTT against Akirin1 -0.337
GGAAUCCUUUCCUAAAUUGTT against Lin9 0.745
GCUAUAUCUAAAGCUAUUCTT against Sgpp1 -0.782
GGAAGUCUCUCGUAUUAUATT against Washc5 -0.993
GGGCCUGAAAAGACCAUCATT against Olfr124 -0.424
GGGCUAUGGCUCCUUUGUGTT against Rhpn1 -1.61
GGUCUUUCAUUGAAGCUGATT against Il1b -0.00807
CGAUCAAAAAAAUCGUGUGTT against Cfap97 0.587
GCAAUCCUAUGAAGUUAAATT against Zfp169 0.295
GGAGAUGGGUUUAAGCCCUTT against Scube3 -0.0385
GCCUGGGUAUGAAGAAAUUTT against Pla2g2f -0.35
GGAGAUCGACCUGUCUAUGTT against Cep164 0.988
GCGAUCACAGACAUCAUUGTT against Rabgef1 -0.423
GCUGGGUUGCUGAUUUUUGTT against Arl5a -0.881
GGCUCAUCAUUGAGAACAUTT against Zmym1 -1.4
GGAUGAAGAUACAGAGGUATT against Spata32 -0.931
GGAUGUAGGCAGUAGUAGCTT against 4931428F04Rik 0.574
GCGAAGUUACUACAGACGUTT against Slc39a1 -0.124
GGAAUCGUACUUCCACUAGTT against AI854703 -0.277
GGGCAUGAAGAGCUACAUCTT against Snx18 -0.597
CGUGUGGACCAAUGUGGUATT against Fam149a 0.793
CCAGAUGGGAUACCUCUACTT against Tmed6 0.303
CGGAUGCAAUCUGACCAGATT against Mettl7a2 0.000984
CCAAUUCAAUUAGACUAGATT against 9430015G10Rik 0.89
GGUUCAGCUCAUAUAUAAUTT against D630029K05Rik 0.448
GGUAGACUCUAGCUUCCUCTT against Gpr182 0.945
GGGUCUUCUGGAGAUUCAGTT against Dgcr6 0.275
GGGAAGUGGAUCGUGUUCUTT against Syt8 0.157
GGAGAAUCUGAUAUUGAUCTT against Cdkl2 0.0472
GCAUGUGUACCAUUUACCUTT against Prdx1 1.87
GGCAUUUAUGUCAAAGGAUTT against Fhl5 0.0626
GCUCACUUCAGGUUUACCATT against Pdcd1 -1.33
GCUAUAGGUUAGAUUCAAATT against Gm5600 0.999
GCAGCUAACUCCAAGUCAGTT against Tfam -1.42
GCCUGAUUUUUUGUCUCUATT against Slc39a7 -0.344
GGAGAAGAAAGAAGUUAAATT against Map1b 1.19
GGAAAAGGUGGAAAAGUGATT against Ddx18 -0.511
GGUUACAAAAGAACCAGAUTT against Pik3c2g 1.66
GCCGGUUUAUAGAAGAAGATT against D6Wsu163e 1.03
GGCACACAGUAACUUGAACTT against Vmn1r51 0.458
GGAAUCUAGAAGAAUCAUUTT against Gnao1 -0.42
CCUGAGUGUGGAGUGUUUCTT against Olfr444 -0.576
GCCACAAGGUUCGGUAUUCTT against 1700028K03Rik -0.281
GGAAAUUCGUGCAUGAAGATT against Sgsm2 -1.31
GGUCUAUCCUACCUCAAAGTT against Prl8a8 1.93
GCUAAGUGCUCGAAUCCGATT against Cnppd1 -0.326
GGGUUUAUGGGCAUGUCCCTT against Adipor2 -0.964
GGAAAAACUGGUAUCUUCCTT against Ermp1 -1.11
GGUUGGCCUGAGUGAAAUGTT against Spata5 0.895

Quoted from the entries so far for reference:
z-score, inactive:
UUUAAGGAUCUCGUGCGAATT against Olfr809 -0.12
GGACAAAGACCAGUCAUUCTT against Nkapl -0.585
GGGAAAGGAAGAUGAUAUCTT against Wdr64 0.127
GGCAUAUGACCAUCAUAAUTT against Porcn -0.71

Following part:

z-score, active:
GGCUAAAUUAUUGCGCAAATT against C1qbp 2.34
GGUUCUUAGGAGUUAACUCTT against Klf16 2.71
CCUGCACAACUGGAAACCUTT against Nectin2 -2.16
GGGUGUGUUUUUAUGUGUUTT against Lcp2 2.57
GGCAUCAAAGACAAUACAATT against Vmn1r15 3.19
CCUCAUUUCAACCAUUCACTT against Lyzl6 -2.36
GGUAUUUCGAAACCUCCGUTT against H2-Q10 2.01
